Assay results: publication PMC7819943, “Rice protein-binding microarrays: a tool to detect cis-acting elements near promoter regions in rice”
Some of the results follow.

Amino acid sequences for entries named in this document (tags omitted).
UniProt Q0JBA9, entry or part of it: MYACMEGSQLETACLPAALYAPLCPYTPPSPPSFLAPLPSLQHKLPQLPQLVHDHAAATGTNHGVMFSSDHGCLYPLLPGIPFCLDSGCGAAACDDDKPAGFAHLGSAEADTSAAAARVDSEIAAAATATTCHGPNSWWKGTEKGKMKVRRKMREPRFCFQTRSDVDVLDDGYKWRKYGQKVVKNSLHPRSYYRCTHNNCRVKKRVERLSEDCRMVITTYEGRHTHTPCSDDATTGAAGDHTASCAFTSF

The sequences below were run against OsWRKY34 (Oryza sativa, UniProt Q0JBA9 1-250) (assay: protein-binding microarray (RPBM); PBS, 2% BSA, 51.3 ng/ul salmon testes DNA, 50 uM zinc acetate, 200 nM TF, 25 C, 1 h; high values mean tight binding). Conditions: protein: recombinant; tags: N-terminal polyhistidine and DsRed monomer fusion (pET32a); label: CyDye5-dUTP incorporated in the synthesized complementary strand; 3' TTTTT single-stranded linker to array surface; dsDNA, one strand shown.
Outline: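 For the binding signal, per-feature fluorescence intensity was read in arbitrary units on an Axon 4000B scanner. Before scanning, a 2% BSA-blocked custom Agilent array made double-stranded with Cy5-dUTP was washed after 1 h at 25 °C with 200 nM protein and 50 µM zinc acetate. The proteins were Ni–NTA-purified transcription factors with N-terminal polyhistidine and DsRed fusions, expressed in E. coli BL21-CodonPlus.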
In the case of “CGCCACCACTGCTGCCATCGTCAACATCCTATATGATTTTCGGAGTCACCTAGTGCAG”, the binding signal is reported as 13400 fluorescence intensity (a.u.). For “CGAGATACCGTACTTGTTCTACTACCTATGGATGATTTTCCGGAGTCACCTAGTGCAG”, the binding signal was 9000 fluorescence intensity (a.u.). “CCTGTGCGCTGGATCATCCGTCGGTCGCCGCTATCCTCTCCGGAGTCACCTAGTGCAG” was tested, and the binding signal was 8740 fluorescence intensity (a.u.). With “GCTTTTTCTGTTGCAATCGTTGTTCTTGGGGTCCCAAATCCGGAGTCACCTAGTGCAG” the binding signal was 9520 fluorescence intensity (a.u.). In the case of “CTGACACGCCCAGCCGTCCCGTTCCATCGCCGCGCTGCTCCGGAGTCACCTAGTGCAG”, the binding signal is reported as 10700 fluorescence intensity (a.u.). For “GCCTATGTTCTATTTCTGTTTCAGTTCAGACAAAATCAGACGGAGTCACCTAGTGCAG”, the binding signal was 8260 fluorescence intensity (a.u.). In the case of “CAAGTCCATGTCATCCTCGTTCCTGTGGTGCCCCATGTCGCGGAGTCACCTAGTGCAG”, the binding signal is reported as 8200 fluorescence intensity (a.u.). In the case of “GTCGTCCGCTAGTCCCTCTATAGAATCCGGTCTCCGATTCCGGAGTCACCTAGTGCAG”, the binding signal is reported as 13800 fluorescence intensity (a.u.). “AGTTACATTGAAAGTCACCGCACACATTCATTCCATAAAGCGGAGTCACCTAGTGCAG” was tested, and the binding signal was 8750 fluorescence intensity (a.u.). “GGTTACTGTCCAACCGCCGCTACTGCCACTTTTCGCGGGACGGAGTCACCTAGTGCAG” was tested, and the binding signal was 10200 fluorescence intensity (a.u.). In the case of “CTCTTTTCCCACTGTGTTGCTTGCCAGTTGCCATTGCAATCGGAGTCACCTAGTGCAG”, the binding signal is reported as 9270 fluorescence intensity (a.u.). In the case of “ATAAATGACGCCGTTGATTTTTTCTCACATGTTTGACCATCGGAGTCACCTAGTGCAG”, the binding signal is reported as 10500 fluorescence intensity (a.u.). For “GGCGGGGCACGGCGGCGGCGGCGCGTGGGAGTACCTCTGCCGGAGTCACCTAGTGCAG”, the binding signal was 8060 fluorescence intensity (a.u.). “ACACCATCAATGTGGCACACCCTAAATTCTCTCCATGCCTCGGAGTCACCTAGTGCAG” was tested, and the binding signal was 8110 fluorescence intensity (a.u.). With “GCCGCGCCCCGATTTGAACCCTCGCCGCCTCGCCTCGCCTCGGAGTCACCTAGTGCAG” the binding signal was 10200 fluorescence intensity (a.u.). In the case of “CCATGGCTCTTCCGCTCGATCGCTCCGGCTCGCCATGACTCGGAGTCACCTAGTGCAG”, the binding signal is reported as 9060 fluorescence intensity (a.u.). “GAGGAATAATTGTCGCTCGATTGCTTGCTTGGGTTGGGTTCGGAGTCACCTAGTGCAG” was tested, and the binding signal was 12000 fluorescence intensity (a.u.). In the case of “GGTTTCCTCATATGCCCTTGAAAATTTGCTATTCCTCTGTCGGAGTCACCTAGTGCAG”, the binding signal is reported as 22700 fluorescence intensity (a.u.). For “CATATTCCAGACTTCCAGTCATGTGTCCAGTCCAATTGACCGGAGTCACCTAGTGCAG”, the binding signal was 8820 fluorescence intensity (a.u.). In the case of “CTGGATACTTGTGTTTATACTTCATCGACTATCTACATGGCGGAGTCACCTAGTGCAG”, the binding signal is reported as 8500 fluorescence intensity (a.u.). In the case of “CTTGTCACTATCCATGTACCTCTCTCATTTGGTACATAAACGGAGTCACCTAGTGCAG”, the binding signal is reported as 8540 fluorescence intensity (a.u.). For “AAGAACAAGTCTCCGTGTTCGTGTTCGTTGTATGTTTTCCCGGAGTCACCTAGTGCAG”, the binding signal was 9920 fluorescence intensity (a.u.). In the case of “CTCTCTTGGTATTTCACTCTATCTCTTCGTGTGGAGAAGACGGAGTCACCTAGTGCAG”, the binding signal is reported as 8980 fluorescence intensity (a.u.). In the case of “AGTCTGCGCCATGTGTGCTCTTCTTCGACGAGCTTGACTCCGGAGTCACCTAGTGCAG”, the binding signal is reported as 8230 fluorescence intensity (a.u.). With “AAACTCTTCGTTCTTATTACTTCGGATCCCATTAGAATGCCGGAGTCACCTAGTGCAG” the binding signal was 8410 fluorescence intensity (a.u.). For “TTTCATTCTAACATGTTAATTTCTAAGCCTTAATTAACATCGGAGTCACCTAGTGCAG”, the binding signal was 8450 fluorescence intensity (a.u.). “TAAGGTCATTGGTTCCAGTTTTTCCCGGTTCAACCGCCGGCGGAGTCACCTAGTGCAG” was tested, and the binding signal was 9480 fluorescence intensity (a.u.). With “CCATTCTTATCTCCATCTGCTTCAAACATAAAGTCCACACCGGAGTCACCTAGTGCAG” the binding signal was 10100 fluorescence intensity (a.u.). “GCACTGCTCGAACTTTGTACTCGCCCGTGAGCTTGACAATCGGAGTCACCTAGTGCAG” was tested, and the binding signal was 9230 fluorescence intensity (a.u.). “GTTCTTGATCTCTCTTCTGCTGGTTACGAAAAATTTGTGTCGGAGTCACCTAGTGCAG” was tested, and the binding signal was 10700 fluorescence intensity (a.u.). With “ACAGATCACCGGCTACAATTCGCGAGCTCCATCAATCCCACGGAGTCACCTAGTGCAG” the binding signal was 11700 fluorescence intensity (a.u.). “TACGCACCCGTCGCCATCCACACCCCACCATTTTCATCCTCGGAGTCACCTAGTGCAG” was tested, and the binding signal was 9030 fluorescence intensity (a.u.). For “ATCCTTTCACATATGTGTGTGCTGTGATTTTTTTTCTTTCCGGAGTCACCTAGTGCAG”, the binding signal was 11300 fluorescence intensity (a.u.). With “TCCTTCTCTGTCTTTGGTTTCGATGGTGCGGTATCTCTGACGGAGTCACCTAGTGCAG” the binding signal was 8560 fluorescence intensity (a.u.). For “ATTGCCGGCGCCGCCTCCGCCTCCATCCTACCGGCCGCATCGGAGTCACCTAGTGCAG”, the binding signal was 11200 fluorescence intensity (a.u.). In the case of “GAAAGCTCTGATTATCTCCATCTACGGTTCTGCTTCAAGCCGGAGTCACCTAGTGCAG”, the binding signal is reported as 8350 fluorescence intensity (a.u.). With “AACCCTCACCATTTTACCATGCTCGCAATTCGTTCATCCCCGGAGTCACCTAGTGCAG” the binding signal was 11000 fluorescence intensity (a.u.). With “GCTTCCATTCGACTCCAGGTTATATCCACCTTTAATTTCTCGGAGTCACCTAGTGCAG” the binding signal was 8770 fluorescence intensity (a.u.). In the case of “TCCTCTCGCTAATATATTTCTCCTCGCTCGATCCATCTTCCGGAGTCACCTAGTGCAG”, the binding signal is reported as 11600 fluorescence intensity (a.u.). With “TTATTCGGCCCGGCCCATTTAAGAGCTCTCGCCCACTTCTCGGAGTCACCTAGTGCAG” the binding signal was 8540 fluorescence intensity (a.u.). In the case of “CCTGCTTCTCCTCGTTGTGTCCTTCTTGTACATTCGCAAGCGGAGTCACCTAGTGCAG”, the binding signal is reported as 8720 fluorescence intensity (a.u.). In the case of “GCCTCCCCTTCGCCCGCTCGCTCCGTCGTTAAGCCAGATCCGGAGTCACCTAGTGCAG”, the binding signal is reported as 8240 fluorescence intensity (a.u.).
